Drawing on PubChem BioAssay AID1508600 (Functional Genomics Laboratory (NCATS/FGL), 2020), this text covers z-score for 68 sequences.

The whole screen tested about 53,000 sequences, of which about 3,700 (7%) were called active.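 The calls were made as follows: active = gene knockdowns whose robust z-score for IL-1 alpha signal is at least 2 or at most -2, so actives lie on both sides; inactive = the rest.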 The list shows a part of the results.

The test in a line: Components of the Cytosolic LPS Sensing Pathway: Gene Identification via Genome-wide siRNA Screen.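 Also: robust z of the log signal after scaling to non-targeting control siRNA wells of the plate.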 The settings on record: RAW264.7 macrophages, IL-1a HTRF, actives lie on both sides, screened at 100 nM (by protocol), cells primed 5 h with Pam3CSK4 first. In outline:
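Knockdown: 100 nM siRNA, 48h, RAW264.7. Stimulation: Pam3CSK4 5 h, then LipidA via TransIT-TKO 24 h. Output: supernatant IL-1a HTRF, negative-control-normalized, log robust z-score; viability by CellTiter-Glo.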
For GGAACAUGUCCAUUAUCACTT against Vmn1r232, the z-score is inactive: 0.811.

Turning to GUAUGCUGGCAGCUCAUUGTT against Klra6, the z-score was inactive: -0.883.

As to GCAUGACCUCAGGUUUUCUTT against Il20rb, the z-score is inactive: 1.57.

For GGACUCUGUAGUUGAAGAUTT against Pogz, the z-score is inactive: -0.882.

As to GGACUUGAUUUAGUGGAAGTT against Cwc22, the z-score was inactive: -0.294.

CGUAUGAAGCUUAAUAGCATT against Polq: the z-score was inactive: -0.219.

Turning to GGAAAACACAACAUGAUACTT against Doc2b, the z-score is inactive: 0.141.

For the sequence GGAGCCACUGGAAAAUUUATT against Ralgapb, the z-score was inactive: 1.47.

Turning to CCGAUUGAAUGAACAACGGTT against Zfp131, the z-score was inactive: -1.41.

With GCAGAGGACCAUUAAUUUATT against Cd180, the z-score was inactive: 0.499.

Turning to GGCCAAAAGUAUGAAAGUATT against Tspan1, the z-score is inactive: 0.45.

Take GGAGCCAUUAUAUAUGUCATT against Abi2: the z-score is inactive: 0.962.

Turning to GAUGAAGCUGCUUUACCACTT against Hes5, the z-score was inactive: 0.318.

Regarding CCCAAGGUGAUGGUGUCCUTT against Hspa1l, the z-score is inactive: 1.68.

For the sequence GGUUCUUUUGCCUUCAGUGTT against Slc7a10, the z-score is inactive: 0.67.

For the sequence GUUCUGCUUUUUGUCAUAUTT against Olfr1431, the z-score is inactive: -0.79.

GGAAAAAGAGGCCUCAAAGTT against Nek5: the z-score was inactive: 1.46.

For GCUACUAUGUGCCUGUGACTT against Oc90, the z-score is active: -2.21.

On to GGUGUGCAUUGGAAUUAUGTT against Mogat1, for which the z-score is inactive: -0.428.

With GCCAGCUUACGAACAUUAATT against Mctp1, the z-score was inactive: -0.659.

As for GGAGAUUUCCAAGAUUCUGTT against Abcc4, the z-score is inactive: -0.348.

With CCUGUACAUUGUGUAAUGUTT against Pcdh8, the z-score was inactive: 0.0925.

Regarding GGUCCUGAUGUUGAAGGCATT against Rinl, the z-score is inactive: 0.647.

Turning to CCAGGUGAUGUCUAGAUAATT against S1pr5, the z-score is inactive: -0.119.

In the case of CGUGUUUGUAGAUAAACCATT against Kcnh8, the z-score was inactive: -0.392.

With GCCAUUAAAGGUAACACUGTT against Tmbim7, the z-score is inactive: 0.0423.

For GGAACAGAAAGAAAAAGACTT against Plcd4, the z-score was inactive: -1.12.

As to GGAAUACAAUGUCUCCAUCTT against Il3ra, the z-score is inactive: -0.518.

With GCUCUCAGCAAAAACCGAGTT against Kif26b, the z-score is active: 2.98.

Regarding GGAACAAGAAGACUGUGAATT against Pcnt, the z-score was inactive: -0.519.

Regarding CCAGGAAUCUAGAUAAUAGTT against BC031181, the z-score is inactive: -1.05.

For the sequence GCUUCCUCUACAUCCUGCUTT against Kcnk15, the z-score is inactive: 0.429.

GCCAACCUCUUAAACACUATT against Trpm5: the z-score is inactive: 0.616.

As to CCUUAAUCACCACCUUCAUTT against Tmem245, the z-score was inactive: 0.893.

With GCUACACCCGCAUGACAAATT against Trit1, the z-score was active: 2.43.

Take GGCAAACUGCGUGUACACUTT against Tmed4: the z-score was inactive: -1.79.

GGACUCAGAAGAAAUGGACTT against Osbpl6: the z-score is inactive: 0.109.

Consider GAUGCAAAGUUUCUUCUUCTT against Olfr745, for which the z-score was inactive: 0.389.

Take GCCAGGCAACGAAACUCAGTT against Leng1: the z-score is inactive: -0.31.

With CCAGGCAUGGAAAUCAACUTT against Ramp3, the z-score was inactive: -0.928.

As to CGAGUUGAUUAAAGAUUGUTT against E2f6, the z-score is inactive: 0.0157.

Turning to GGACAAGCAGUCCACUUGGTT against Ski, the z-score was inactive: 0.679.

GGACAAUCUCUUCAGGAGUTT against Gzme: the z-score is inactive: -1.16.

For GCUUUAAUGCCAGUUUGGGTT against Olfr1391, the z-score was inactive: -0.472.

With GGUCAUUCUGGCAUUAAUGTT against Clec4f, the z-score is inactive: -0.364.

GUUGGUUUGUUGACCUCUUTT against Arap2: the z-score was inactive: 0.1.

As to GGAGAGUUUUAGAUGCCUCTT against Eri3, the z-score was inactive: -0.124.

As for GGUUGCUUGGAAUUAAAAGTT against Klhl1, the z-score was inactive: -1.58.

As to CGAUGGUACACUCAAUGAUTT against Hk2, the z-score is inactive: 1.89.

As for GGCCAAGAAAAUGAUUGCATT against Gpr19, the z-score was inactive: -0.445.

Consider GGAGUGGUCUGACAGAAGATT against Epdr1, for which the z-score was inactive: 0.483.

Turning to “CGGGAUUUGAAAGACUCAGTT against A530032D15Rik”, the z-score is inactive: -0.136.

Turning to GGUCUUUUUGGUCUUAUUUTT against Olfr293, the z-score is inactive: -1.02.

On to CCUCUUGGUUAAAUAAUGUTT against Rnf103, for which the z-score was inactive: -1.9.

For GCGGUGUUUAAGCAUUGAUTT against Leprot, the z-score was inactive: -0.0992.

For GGCCAGAACCACCAAAGAATT against Zc2hc1a, the z-score was inactive: -0.753.

With CCAAGUGAAGACACGAUUGTT against Zfp809, the z-score is inactive: -1.22.

CCCUGACCUUGUGGUAGAATT against Aspdh: the z-score was inactive: -0.165.

Consider GCGAGAGCUAAAGUAAAAUTT against Egln1, for which the z-score is inactive: -0.671.

For the sequence CCUAAAAGCAGGCCAAAAUTT against Dhx29, the z-score was inactive: -1.26.

For the sequence GGCUGAAGGAGCAAUCAAATT against L3mbtl3, the z-score was inactive: 1.85.

As to GGAUAUGUUGCUCACAUAATT against Abca13, the z-score is inactive: -0.414.

On to GGGAACUGAAUUUUUCAGUTT against Ank3, for which the z-score is inactive: 1.43.

Regarding GGAGCUAGAUAGGAAAAAATT against Vill, the z-score was inactive: -1.44.

On to GGCUAUAGGGAUGAUCAUATT against Cysltr1, for which the z-score is inactive: -0.93.

With UGGUAAGUAUUCAUGAAUCTT against Vmn1r219, the z-score was inactive: -0.366.

As for GCAGCUAAGCACUGGAAAATT against Coq4, the z-score was inactive: 0.318.

Regarding GCUCUAAGGACCAUAUACCTT against Ppm1d, the z-score was inactive: 0.257.
